Experimental data from patent US20060024297A1 (published 2006).
Substitutions are numbered along the chain they refer to. Results are given in words; binding and its absence hold for the method and conditions named. Some entries that bind do so weakly or less than the wild type.

The chains behind the UniProt entries cited, without tags or fusion partners. Where a name states a change or a piece, a line headed by the entry shows the natural chain unless it says otherwise.
UniProt P35590: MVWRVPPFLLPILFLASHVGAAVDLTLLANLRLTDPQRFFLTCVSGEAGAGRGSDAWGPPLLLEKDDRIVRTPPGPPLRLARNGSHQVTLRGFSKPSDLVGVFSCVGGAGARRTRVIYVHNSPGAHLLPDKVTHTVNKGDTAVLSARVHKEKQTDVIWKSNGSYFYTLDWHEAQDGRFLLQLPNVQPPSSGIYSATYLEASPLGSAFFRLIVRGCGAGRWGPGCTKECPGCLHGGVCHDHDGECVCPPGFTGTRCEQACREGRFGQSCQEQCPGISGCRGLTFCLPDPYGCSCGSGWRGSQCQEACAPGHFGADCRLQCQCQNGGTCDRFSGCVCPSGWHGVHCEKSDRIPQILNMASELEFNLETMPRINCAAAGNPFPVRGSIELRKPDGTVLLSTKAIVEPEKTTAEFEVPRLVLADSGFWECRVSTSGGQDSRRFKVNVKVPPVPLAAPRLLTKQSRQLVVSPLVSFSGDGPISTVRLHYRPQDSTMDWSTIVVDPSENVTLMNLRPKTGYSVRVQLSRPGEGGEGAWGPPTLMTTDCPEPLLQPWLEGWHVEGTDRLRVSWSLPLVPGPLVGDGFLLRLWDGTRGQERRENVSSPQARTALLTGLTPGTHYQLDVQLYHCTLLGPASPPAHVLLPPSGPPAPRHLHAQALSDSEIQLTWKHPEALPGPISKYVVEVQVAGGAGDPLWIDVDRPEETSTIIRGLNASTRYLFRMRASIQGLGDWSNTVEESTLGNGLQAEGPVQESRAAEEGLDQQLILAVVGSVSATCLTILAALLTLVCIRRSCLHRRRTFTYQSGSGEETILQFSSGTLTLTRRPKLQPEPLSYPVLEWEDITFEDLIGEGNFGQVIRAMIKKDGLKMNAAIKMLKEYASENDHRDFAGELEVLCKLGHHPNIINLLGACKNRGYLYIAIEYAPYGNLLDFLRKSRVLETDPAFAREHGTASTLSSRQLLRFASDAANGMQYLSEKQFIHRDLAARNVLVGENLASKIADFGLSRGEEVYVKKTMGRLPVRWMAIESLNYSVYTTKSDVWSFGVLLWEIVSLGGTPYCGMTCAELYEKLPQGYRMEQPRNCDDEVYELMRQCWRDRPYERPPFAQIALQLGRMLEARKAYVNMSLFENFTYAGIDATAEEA

B1: A2 IgG (anti-Tie1 isolate s-A2, human IgG1) (antibody, V domains shown)
VH: EVQLLESGGGLVQPGGSLRLSCAASGFTFSRYTMMWVRQAPGKGLEWVSGIYPSGGVTLYADSVKGRFTISRDNSKNTLYLQMNSLRAEDTAVYYCARVNYYDSSGYGPIAPGLDYWGQGTLVTVSS
VL: DIQMTQSPGTLSLSPGERATLSCRASRSVIISYVAWYQQKPGQAPRLLIYGASTRATGIPDRFSGSGSGTDFTLTISRLEPEDFAVYFCQLYGRSPRIIFGQGTRLEIK
B2: A10 IgG (anti-Tie1 isolate s-A10, human IgG1) (antibody, V domains shown)
VH: EVQLLESGGGLVQPGGSLRLSCAASGFTFSNYVMVWVRQAPGKGLEWVSGIYPSGGHTKYADSVKGRFTISRDNSKNTLYLQMNSLRAEDTAVYYCARVNYYDSSGYGPIAPGLDYWGQGTLV
VL: DIQMTQSPGTLSLSPGERATLFCRASQRVTSNSLAWYQQRPGQAPRLLIYDASTRATGIPDRFSGSGSGRDFTLTISRLEPEDFAVYYCQRYGSSVLYSFGQGTKLEIT
B3: B2 IgG (anti-Tie1 isolate s-B2, human IgG1) (antibody, V domains shown)
VH: EVQLLESGGGLVQPGGSLRLSCAASGFTFSIYGMAWVRQAPGKGLEWVSVISPSGGQTFYADSVKGRFTISRDNSKNTLYLQMNSLRAEDTAVYYCARVYYYGMDVWGQGTTVTVSS
VL: DIQMTQSPATLSLSPGERATLSCRASQSVSSYLAWYQQKPGQAPRLLIYDASNRATGIPARFSGSGSETDFTLTISSLEPEDFAVYYCQQRSKWPRTFGQGTKLEIK
B4: B9 IgG (anti-Tie1 isolate s-B9, human IgG1) (antibody, V domains shown)
VH: B1 VH with R31S, T33V, V57W, L59Y, A61T
VL: DIQMTQSPSSLSASVGDRVTITCRASQSVSSHLSWFQQRPGKAPNLLIYHASSLQSGVPSRFSGSGSGTDFTLTISSLQPEDFATYYCQQSYATSSITFGQGTRLDIK
B5: C2 IgG (anti-Tie1 isolate s-C2, human IgG1) (antibody, V domains shown)
VH: B1 VH with T33K, M35K, G50V, V57G, L59G
VL: AQSVLTQPDSVSGSPGESITISCTGSSRDVGGYNYVSWYQQHPGKAPKLLLYDVTYRPSGISGRFSGSKSGDTASLTISGLRTEDEADYYCSSSIGTRTYVFGSGTKVTVLR
B6: C7 IgG (anti-Tie1 isolate s-C7, human IgG1) (antibody, V domains shown)
VH: EVQLLESGGGLVQPGGSLRLSCAASGFTFSRYVMYWVRQAPGKGLEWVSVIYPSGGATYYADSVKGRFTISRDNSKNTLYLQMNSLRAEDTAVYYCARRGSSGAFDYWGQGTLVTVSS
VL: AQSVLTQPASVSGSPGQSITISCTGTSSDIGRYNYASWYQQRPGKSPKLLIYEVSDRPSGVSNRFSGSKSGNTASLIISGLQAEDEADYYCSSYSSTNSLQVVFGGGTKLSVLG
B7: C10 IgG (anti-Tie1 isolate s-C10, human IgG1) (antibody, V domains shown)
VH: B1 VH with R31A, T33G, M35S, G50V, V57W, L59Y
VL: DIQMTQSPGTLSLSPGERATLSCRASQSVSSSYLAWYQQKPGQAPRLLIYGASSRATGIPDRFSGSGSGTDFTLTISRLEPEDFAVYYCQQYNNWPRTFGQGTKVEIK
B8: D11 IgG (anti-Tie1 isolate s-D11, human IgG1) (antibody, V domains shown)
VH: EVQLLESGGGLVQPGGSLRLSCAASGFTFSGYAMWWVRQAPGKGLEWVSSISPSGGATAYADSVKGRFTISRDNSKNTLYLQMNSLRAEDTAVYYCARDAGSYYWGWFDPWGQGTLVTVSS
VL: B3 VL with V29I, A43P, N53S, A55V, S67F, E68G, Q89L, K93S
B9: H4 IgG (anti-Tie1 isolate s-H4, human IgG1) (antibody, V domains shown)
VH: EVQLLESGGGLVQPGGSLRLSCAASGFTFSSYKMGWVRQAPGKGLEWVSSIYPSGGWTHYADSVKGRFTISRDNSKNTLYLQMNSLRAEDTAVYYCARVLLHYFDYWGQGTLV
VL: AQSVLTQPASVSGSPGQSITISCTGTSSDVGGYKYVSWYQQHPGKAPKLIISDVNNRPSGVSDRFSGSKSGNTASLTISGLQAEDDGDYYCSSYASSSYTSSTTWVFGGGTKLTVLG

biological target: endogenous human Tie1 of primary human endothelial cells (HDMEC/HDMVEC, HUVEC) and human tissues (human) (UniProt P35590); assay: Western blot, HDMEC

| Binder | binding |
| --- | --- |
| B1 | binds |
| B2 | binds |
| B3 | binds |
| B4 | binds |
| B5 | binds |
| B6 | binds |
| B7 | binds |
| B8 | binds |
| B9 | binds |

biological target: endogenous human Tie1 of primary human endothelial cells (HDMEC/HDMVEC, HUVEC) and human tissues (human) (UniProt P35590); assay: immunofluorescence, HDMEC

| Binder | binding |
| --- | --- |
| B1 | binds |
| B2 | binds |
| B3 | binds |
| B4 | binds |
| B5 | binds |
| B6 | binds |
| B7 | binds |
| B8 | binds |
| B9 | binds |

biological target: endogenous human Tie1 of primary human endothelial cells (HDMEC/HDMVEC, HUVEC) and human tissues (human) (UniProt P35590); assay: immunoprecipitation, HDMEC

| Binder | binding |
| --- | --- |
| B1 | binds |
| B2 | binds |
| B4 | binds |
| B5 | binds |
| B6 | binds |
| B7 | binds |
| B9 | binds |

biological target: endogenous human Tie1 of primary human endothelial cells (HDMEC/HDMVEC, HUVEC) and human tissues (human) (UniProt P35590); assay: immunohistochemistry, human skin

| Binder | binding |
| --- | --- |
| B3 | binds |
| B8 | binds |

biological target: endogenous human Tie1 of primary human endothelial cells (HDMEC/HDMVEC, HUVEC) and human tissues (human) (UniProt P35590); assay: immunohistochemistry, human lung

| Binder | binding |
| --- | --- |
| B8 | binds |

biological target: endogenous human Tie1 of primary human endothelial cells (HDMEC/HDMVEC, HUVEC) and human tissues (human) (UniProt P35590); assay: immunohistochemistry, human kidney

| Binder | binding |
| --- | --- |
| B3 | binds |
| B8 | binds |

biological target: endogenous human Tie1 of primary human endothelial cells (HDMEC/HDMVEC, HUVEC) and human tissues (human) (UniProt P35590); assay: immunohistochemistry, human breast

| Binder | binding |
| --- | --- |
| B3 | binds |
| B8 | binds |

biological target: human Tie1, full length, V5-tagged (pcDNA3-Tie1-V5), in transiently transfected COS1 cells (human) (UniProt P35590); assay: Western blot, Tie1-V5-transfected COS1

| Binder | binding |
| --- | --- |
| B1 | binds |
| B2 | binds |
| B3 | binds |
| B4 | binds |
| B5 | binds |
| B6 | binds |
| B7 | binds |
| B8 | binds |
| B9 | binds |

biological target: endogenous human Tie1 of primary human endothelial cells (HDMEC/HDMVEC, HUVEC) and human tissues (human) (UniProt P35590); assay: immunohistochemistry, human lung carcinoma

| Binder | binding |
| --- | --- |
| B3 | binds |

biological target: human Tie1, full length, V5-tagged (pcDNA3-Tie1-V5), in transiently transfected COS1 cells (human) (UniProt P35590); assay: immunofluorescence, Tie1-V5-transfected COS1

| Binder | binding |
| --- | --- |
| B1 | binds |
| B2 | binds |
| B3 | binds |
| B4 | binds |
| B5 | binds |
| B6 | binds |
| B7 | binds |
| B8 | binds |
| B9 | binds |

biological target: human Tie1, full length, V5-tagged (pcDNA3-Tie1-V5), in transiently transfected COS1 cells (human) (UniProt P35590); assay: immunoprecipitation, Tie1-V5-transfected COS1

| Binder | binding |
| --- | --- |
| B1 | binds |
| B2 | binds |
| B3 | binds |
| B4 | binds |
| B5 | binds |
| B6 | binds |
| B7 | binds |
| B8 | binds |
| B9 | binds |

biological target: endogenous human Tie1 of primary human endothelial cells (HDMEC/HDMVEC, HUVEC) and human tissues (human) (UniProt P35590); assay: immunohistochemistry, frozen human tissue sections

| Binder | binding |
| --- | --- |
| B3 | binds |

biological target: endogenous human Tie1 of primary human endothelial cells (HDMEC/HDMVEC, HUVEC) and human tissues (human) (UniProt P35590); assay: Western blot, immunoprecipitation, immunofluorescence

| Binder | binding |
| --- | --- |
| B1 | binds |
| B2 | binds |
| B3 | binds |
| B4 | binds |
| B5 | binds |
| B6 | binds |
| B7 | binds |
| B8 | binds |
| B9 | binds |

biological target: human Tie1, full length, V5-tagged (pcDNA3-Tie1-V5), in transiently transfected COS1 cells (human) (UniProt P35590); assay: as above

| Binder | binding |
| --- | --- |
| B1 | binds |
| B2 | binds |
| B3 | binds |
| B4 | binds |
| B5 | binds |
| B6 | binds |
| B7 | binds |
| B8 | binds |
| B9 | binds |
